Results are given in words; binding and its absence hold for the method and conditions named. Binding calls can cover weak binding; strength is not graded here. Sequences can lack the tags named with a protein.

The assay concerns the target FimV domain of S. putrefaciens HubP (S. putrefaciens). The assay can be described thus: SEC. On the technique in general: SEC sorts molecules by how far they enter the pores of the column.

B1: MBP-GGDEF_(SoPdeB), GGDEF domain of S. oneidensis PdeB, wild type (domain or fragment, UniProt Q8EJM6 454-587)
chain: RSLAVCYLDLEQFKLINDSCGHTAGDRMLAMVARAIQSCLGPQELLARIGGDEFGLVICDRTALAVAQLLKQIIAQVSLQVLHDKNCNYKVGLSIGVAFGRAPYINAQELLKDADIACIAAKAKGTNQIHIYDD
B1: the binding result is listed as “binds”.

The values are drawn from publication doi:10.1101/2021.08.12.456111.
